PubChem BioAssay AID504791 | Drosophila RNAi Screening Center | 2011
The screen tested about 23,000 reagents; shown is a random part of those that have a named target and a result. In the full data, 199 (0.86%) got an active call. 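Plate-scaled ratios behind the calls are not deposited; printed light signals are raw; many rows marked increased or decreased are still called inactive.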 The numbers tell different reagents against one gene apart. Names joined by + are all predicted targets of the reagent.

Screen: 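Genes of the fly required for silencing by miRNA, siRNA or endo-siRNA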 (primary screen)
Cells: Drosophila S2-derived reporter cells
Reagent: long dsRNA against Drosophila genes, about 150-250 ng dsRNA per well (siRNA assay); about 80-120 ng (miRNA assay)
Duration: about 5 days (siRNA assay); about 4 days (miRNA assay)
Challenge: copper sulfate induction of reporters: 25 µM (siRNA assay); 200 mM stated (miRNA assay), 1-2 days before reading
Detection: 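Dual luciferase assay: Renilla to firefly signal ratio in each well, scaled to the mean ratio of its plate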
Direction: siRNA reporter hit score: higher = 3 marks a strong hit with raised ratio; -3 a strong hit with lowered ratio
Call rule: 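a well was a first-pass pick when its plate-scaled ratio rose above 1.5 (siRNA assay) or 1.6 (miRNA assay), or dropped below 0.6; a gene counted only if two separate dsRNAs agreed on retest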

| siRNA reporter hit score | stable siRNA reporter change | miRNA reporter change | stable assay Renilla, run 1 (luminescence) | stable assay firefly, run 1 (luminescence) | outcome | gene knocked down | dsRNA no. |
| --- | --- | --- | --- | --- | --- | --- | --- |
| – | – | – | 5674 | 3.61e5 | inactive | mRpS17 (mitochondrial ribosomal protein S17) | 1 |
| – | – | – | 6950 | 3.57e5 | inactive | mah (mahogany) | 1 |
| – | – | – | 9875 | 4.06e5 | inactive | Cyp6g1 (Cytochrome P450 6g1) | 1 |
| – | – | – | 5610 | 4.72e5 | inactive | CG10597 | 1 |
| – | – | reporter ratio lowered past the hit cutoff | 8487 | 5.51e5 | inactive | sau (sauron) | 1 |
| – | – | – | 5572 | 3.71e5 | inactive | mthl6 (methuselah-like 6) | 1 |
| – | – | – | 6080 | 3.44e5 | inactive | Cpr47Ea (Cuticular protein 47Ea) | 1 |
| – | reporter ratio lowered past the hit cutoff | – | 8594 | 5.36e5 | inactive | eIF2Bgamma (eukaryotic translation initiation factor 2B subunit gamma) | 1 |
| – | – | – | 6435 | 3.59e5 | inactive | meigo (medial glomeruli) | 1 |
| – | – | – | 7134 | 4.04e5 | inactive | l(2)k10201 (lethal (2) k10201) | 1 |
| – | – | – | 8307 | 5.13e5 | inactive | l(2)k10201 (lethal (2) k10201) | 2 |
| – | – | – | 7799 | 3.09e5 | inactive | Neurl4 (Neuralized E3 ubiquitin protein ligase 4) | 1 |
| – | – | – | 6599 | 4.69e5 | inactive | GstE2 (Glutathione S transferase E2) | 1 |
| – | – | – | 7028 | 3.90e5 | inactive | djl (don juan like) | 1 |
| – | – | – | 2775 | 2.55e5 | inactive | upd1 (unpaired 1) | 1 |
| – | – | – | 7312 | 2.72e5 | inactive | Rab7 | 1 |
| – | – | – | 6903 | 3.89e5 | inactive | CG17681 | 1 |
| – | – | – | 24441 | 2.94e5 | inactive | Charon | 1 |
| – | – | – | 5636 | 5.54e5 | inactive | nudE | 1 |
| – | – | – | 6747 | 3.52e5 | inactive | nudE | 2 |
| – | – | – | 5586 | 4.67e5 | inactive | CG33992 (retired record) + CG43755 | 1 |
| – | – | – | 6563 | 4.88e5 | inactive | da | 1 |
| – | – | – | 9331 | 5.60e5 | inactive | Cec2 (Cecropin 2) | 1 |
| – | – | – | 4539 | 4.90e5 | inactive | CR32028 (retired record) | 1 |
| – | – | – | 2.10e5 | 5.19e5 | inactive | CG9485 | 1 |
| – | – | – | 7630 | 3.87e5 | inactive | CG9926 | 1 |
| – | – | – | 6548 | 3.89e5 | inactive | CG11550 | 1 |
| – | – | – | 9740 | 3.94e5 | inactive | Syx7 (Syntaxin 7) | 1 |
| – | – | – | 7417 | 4.13e5 | inactive | CG14130 | 1 |
| – | – | – | 20799 | 6.65e5 | inactive | eIF3h (eukaryotic translation initiation factor 3 subunit h) | 1 |
| – | – | – | 7703 | 4.70e5 | inactive | CG42747 | 1 |
| – | – | – | 6712 | 3.91e5 | inactive | CG42747 | 2 |
| – | – | reporter ratio lowered past the hit cutoff | 7262 | 3.92e5 | inactive | Rs1 | 1 |
| – | – | – | 5864 | 4.15e5 | inactive | Acbp6 (Acyl-CoA binding protein 6) | 1 |
| 3 | – | – | 6344 | 3.64e5 | inactive | CG6978 | 1 |
| – | – | – | 5907 | 3.74e5 | inactive | Ufd1 (Ubiquitin fusion-degradation 1-like) | 1 |
| – | – | – | 1.39e5 | 1.44e6 | inactive | Letm1 | 1 |
| – | – | – | 6795 | 4.51e5 | inactive | Use1 (Unconventional SNARE in the ER 1) | 1 |
| – | – | – | 6455 | 4.14e5 | inactive | Unc-115a (Uncoordinated 115a) | 1 |
| – | – | – | 7106 | 5.17e5 | inactive | Rm62 | 1 |
| – | – | – | 6222 | 3.46e5 | inactive | CG34205 | 1 |
| – | – | – | 5314 | 5.91e5 | inactive | CG34205 | 2 |
| – | – | – | 8283 | 3.96e5 | inactive | trbd (trabid) | 1 |
| – | – | – | 5703 | 4.37e5 | inactive | Chpf (Chondroitin polymerizing factor) | 1 |
| – | – | – | 8554 | 4.34e5 | inactive | Chpf (Chondroitin polymerizing factor) | 2 |
| – | – | – | 6146 | 3.89e5 | inactive | Dpy-30L2 (Dpy-30-like 2) | 1 |
| – | – | – | 7066 | 4.16e5 | inactive | Stt3B | 1 |
| – | – | – | 5655 | 3.46e5 | inactive | CG34253 | 1 |
| – | – | – | 6482 | 4.29e5 | inactive | AhcyL1 (Adenosylhomocysteinase like 1) | 1 |
| – | – | – | 8687 | 5.15e5 | inactive | tank | 1 |
| – | reporter ratio lowered past the hit cutoff | – | 5127 | 3.72e5 | inactive | Cdk2 (Cyclin-dependent kinase 2) | 1 |
| – | – | – | 5820 | 4.58e5 | inactive | CG33465 | 1 |
| – | – | – | 5735 | 4.25e5 | inactive | tilB (touch insensitive larva B) | 1 |
| – | – | – | 4804 | 3.90e5 | inactive | CG32391 | 1 |
| – | reporter ratio lowered past the hit cutoff | – | 2328 | 3.11e5 | inactive | KP78b + KP78a | 1 |
| – | – | – | 4687 | 2.56e5 | inactive | KP78b + KP78a | 2 |
| – | – | – | 21802 | 9.16e5 | inactive | RpL19 (Ribosomal protein L19) | 1 |
| – | – | – | 4551 | 3.76e5 | inactive | zormin | 1 |
| – | – | – | 6347 | 3.20e5 | inactive | zormin | 2 |
| – | – | – | 7031 | 3.91e5 | inactive | zormin | 3 |
| – | – | – | 5656 | 3.32e5 | inactive | zormin | 4 |
| – | – | – | 6263 | 3.65e5 | inactive | zormin | 5 |
| – | – | – | 7519 | 2.17e5 | inactive | zormin | 6 |
| – | – | – | 2827 | 3.25e5 | inactive | zormin | 7 |
| – | – | – | 5411 | 3.33e5 | inactive | CG33181 | 1 |
| – | – | – | 8938 | 5.57e5 | inactive | CG33181 | 2 |
| – | – | – | 6419 | 4.37e5 | inactive | EcR (Ecdysone receptor) | 1 |
| – | – | – | 8179 | 1.64e6 | inactive | EcR (Ecdysone receptor) | 2 |
| – | – | – | 6587 | 3.11e5 | inactive | Trf4-1 (Topoisomerase related function 4-1) | 1 |
| – | – | – | 7822 | 4.07e5 | inactive | AANATL2 (Arylalkylamine N-acetyltransferase-like 2) | 1 |
| – | – | – | 4287 | 3.36e5 | inactive | CG5321 | 1 |
| – | – | – | 2956 | 2.96e5 | inactive | CG5321 | 2 |
| – | – | – | 5407 | 4.30e5 | inactive | CG15296 | 1 |
| – | – | – | 55232 | 8.40e5 | inactive | CG3770 | 1 |
| – | – | – | 7303 | 4.30e5 | inactive | CG8675 | 1 |
| – | – | – | 5803 | 3.47e5 | inactive | CG15337 | 1 |
| – | – | – | 4684 | 3.20e5 | inactive | CG15337 | 2 |
| – | – | – | 6732 | 5.69e5 | inactive | DppIII (Dipeptidyl aminopeptidase III) | 1 |
| – | – | – | 6979 | 3.83e5 | inactive | Ge-1 | 1 |
| – | – | – | 7419 | 5.03e5 | inactive | CR33317 (pseudo) | 1 |
| – | – | – | 13378 | 8.08e5 | inactive | lectin-24Db | 1 |
| – | – | – | 5476 | 2.91e5 | inactive | Bfc (Booster for Crq) | 1 |
| – | – | – | 5791 | 3.35e5 | inactive | CG6337 | 1 |
| – | – | – | 9547 | 6.78e5 | inactive | CG6337 | 2 |
| – | – | – | 8459 | 5.20e5 | inactive | CG14881 | 1 |
| – | – | – | 7886 | 3.41e5 | inactive | Ggamma1 (G protein gamma subunit 1) | 1 |
| – | – | – | 7642 | 3.03e5 | inactive | Saf-B (Scaffold attachment factor B) | 1 |
| – | – | – | 6456 | 4.47e5 | inactive | CG43367 | 1 |
| – | – | – | 6054 | 2.93e5 | inactive | CG43367 | 2 |
| – | – | – | 6031 | 3.58e5 | inactive | CG43367 | 3 |
| – | – | – | 5499 | 2.52e5 | inactive | CG32052 | 1 |
| – | – | – | 4120 | 3.55e5 | inactive | CG1965 | 1 |
| – | – | – | 9811 | 5.90e5 | inactive | CG1965 | 2 |
| – | – | – | 5986 | 3.65e5 | inactive | Fen1 (Flap endonuclease 1) | 1 |
| – | – | – | 8477 | 4.94e5 | inactive | BicC (Bicaudal C) | 1 |
| – | – | – | 5811 | 3.78e5 | inactive | ssp7 (short spindle 7) | 1 |
| – | – | – | 7106 | 4.36e5 | inactive | CG34447 | 1 |
| – | – | – | 8247 | 5.34e5 | inactive | Prip | 1 |
| – | – | – | 6744 | 3.77e5 | inactive | Orc5 (Origin recognition complex subunit 5) | 1 |
| – | – | – | 5751 | 5.82e5 | inactive | blot (bloated tubules) | 1 |
| – | – | – | 9491 | 2.68e5 | inactive | blot (bloated tubules) | 2 |
| – | – | – | 4806 | 3.82e5 | inactive | Mur11Da (Mucin related 11Da) | 1 |
| – | – | – | 5951 | 4.08e5 | inactive | CG33474 | 1 |
| – | – | – | 5103 | 2.71e5 | inactive | how (held out wings) | 1 |
| – | – | – | 6450 | 2.80e5 | inactive | dtn (detonator) | 1 |
| – | – | – | 7930 | 4.17e5 | inactive | CG6800 | 1 |
